Assay results taken from paper PMC12528419.
Results are given in words; binding and its absence hold for the method and conditions named. In cells and extracts the contact can be indirect. Some binding calls cover weakened binding; strength is not graded here.

Sequences of proteins named here, by UniProt entry; tags and fusion partners are left off.
UniProt O15085: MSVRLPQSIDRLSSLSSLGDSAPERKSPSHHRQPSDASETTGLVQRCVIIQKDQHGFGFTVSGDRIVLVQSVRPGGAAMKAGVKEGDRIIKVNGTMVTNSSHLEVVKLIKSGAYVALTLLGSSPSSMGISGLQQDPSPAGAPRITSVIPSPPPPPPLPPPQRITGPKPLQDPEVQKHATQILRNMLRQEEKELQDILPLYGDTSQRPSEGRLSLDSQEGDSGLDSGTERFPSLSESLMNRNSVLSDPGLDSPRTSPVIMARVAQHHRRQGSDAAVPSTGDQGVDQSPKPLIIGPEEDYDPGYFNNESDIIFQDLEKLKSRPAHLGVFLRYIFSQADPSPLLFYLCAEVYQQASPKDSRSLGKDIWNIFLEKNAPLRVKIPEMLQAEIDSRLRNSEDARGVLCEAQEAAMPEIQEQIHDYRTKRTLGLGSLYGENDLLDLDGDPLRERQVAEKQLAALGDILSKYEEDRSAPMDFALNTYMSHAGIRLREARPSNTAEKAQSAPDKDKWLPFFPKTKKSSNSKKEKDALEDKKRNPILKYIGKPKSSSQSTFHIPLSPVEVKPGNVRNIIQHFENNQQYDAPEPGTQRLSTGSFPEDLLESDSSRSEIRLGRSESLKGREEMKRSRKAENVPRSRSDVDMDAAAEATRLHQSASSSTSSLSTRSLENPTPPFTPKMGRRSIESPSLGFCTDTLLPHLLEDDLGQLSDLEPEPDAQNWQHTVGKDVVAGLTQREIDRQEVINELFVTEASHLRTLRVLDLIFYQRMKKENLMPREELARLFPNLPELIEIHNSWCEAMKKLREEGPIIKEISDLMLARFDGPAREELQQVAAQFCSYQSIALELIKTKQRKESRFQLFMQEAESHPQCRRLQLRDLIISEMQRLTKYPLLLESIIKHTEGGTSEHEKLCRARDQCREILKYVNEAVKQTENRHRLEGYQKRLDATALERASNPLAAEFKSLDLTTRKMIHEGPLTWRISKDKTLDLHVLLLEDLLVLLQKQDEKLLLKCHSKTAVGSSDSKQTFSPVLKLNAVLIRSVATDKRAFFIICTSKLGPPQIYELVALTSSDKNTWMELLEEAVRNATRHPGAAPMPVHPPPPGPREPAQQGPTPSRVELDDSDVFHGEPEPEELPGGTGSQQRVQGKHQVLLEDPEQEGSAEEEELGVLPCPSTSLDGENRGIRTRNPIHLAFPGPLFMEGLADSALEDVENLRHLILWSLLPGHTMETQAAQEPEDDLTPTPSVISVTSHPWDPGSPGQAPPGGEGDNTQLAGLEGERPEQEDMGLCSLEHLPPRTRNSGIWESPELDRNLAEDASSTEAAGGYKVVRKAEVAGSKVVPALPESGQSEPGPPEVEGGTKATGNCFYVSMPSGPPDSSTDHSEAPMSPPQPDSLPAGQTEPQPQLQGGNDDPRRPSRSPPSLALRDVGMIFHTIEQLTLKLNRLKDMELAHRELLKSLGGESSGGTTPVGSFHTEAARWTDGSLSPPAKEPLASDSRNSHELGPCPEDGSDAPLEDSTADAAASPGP

Molecular target: endogenous Nesprin-2 (human (endogenous in the paper's human cell lines)) (UniProt Q8WXH0)
Experiment: co-IP; 2 mg cell lysate incubated with 2 μg anti-Nesprin-2 Ab2 for 16 h, then 10 μl protein A/G PLUS-agarose beads for 1 h at 4 °C; endogenous proteins

endogenous PDZ RhoGEF (from UniProt O15085 1-1522)
binding: binds
